Experimental data reported in the supplement of paper PMC6078165.
The reference is the same well before dosing, and untreated signal decays as well.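 Labels refer to human fibroblasts, largely primary: uterine (C12385, HUF), lung (H6013), bone (Hs27A), adrenal (HADF), skin (WS1), plus mammary HMF and breast cancer-associated Hs343T. Cancer lines are basal-like or mesenchymal-like triple-negative breast cancer. The paper counts as hits responses shifting over 3x the replicate standard deviation. The tissue of the other fibroblasts is not given here.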

System: Hs578T
Assay: relative JC-1 red fluorescence (viability) vs pre-drug, coculture with fibroblast (fraction); higher = more viable cancer cells
Conditions: 0.1 µM
Protocol: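 JC-1 labelled TNBC cells cocultured 1:1 (1,500 cells each) with CellTrace Violet stained primary or stromal fibroblasts in 384-well plates in FluoroBrite medium, treated with one of 42 anticancer drugs at 0.1, 1, 10 or 100 uM. JC-1 red fluorescence (mitochondrial integrity in cancer cells only) was read by plate reader every 8 h for 72 h. Values are normalised to each well's pre-drug value. The stock of one drug was tenfold lower, so its dose labels may be too high.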

CN(Cc1cnc2nc(N)nc(N)c2n1)c1ccc(C(=O)N[C@@H](CCC(=O)O)C(=O)O)cc1 [Methotrexate]
Conditions | relative JC-1 red fluorescence
8 h | 0.929
16 h | 0.801
24 h | 0.738
32 h | 0.695
40 h | 0.63
48 h | 0.595
56 h | 0.585
64 h | 0.555
72 h | 0.558

relative JC-1 red fluorescence
Conditions | 8 h | 16 h | 24 h | 32 h | 40 h | 48 h | 56 h | 64 h | 72 h
coculture fibroblast: C12385 | 0.832 | 0.71 | 0.673 | 0.582 | 0.531 | 0.5073 | 0.485 | 0.491 | 0.487
coculture fibroblast: H6013 | 0.905 | 0.823 | 0.78 | 0.765 | 0.729 | 0.716 | 0.695 | 0.696 | 0.671
coculture fibroblast: H6019 | 0.767 | 0.677 | 0.669 | 0.584 | 0.551 | 0.531 | 0.501 | 0.492 | 0.473
coculture fibroblast: H6076 | 0.9145 | 0.797 | 0.7554 | 0.741 | 0.694 | 0.688 | 0.666 | 0.659 | 0.666
coculture fibroblast: H6231 | 0.904 | 0.803 | 0.687 | 0.649 | 0.573 | 0.548 | 0.508 | 0.486 | 0.466
coculture fibroblast: HADF | 0.92 | 0.846 | 0.763 | 0.723 | 0.683 | 0.657 | 0.6301 | 0.6231 | 0.597
coculture fibroblast: HCFa | 0.8719 | 0.78104 | 0.719 | 0.668 | 0.607 | 0.577 | 0.538 | 0.519 | 0.484
coculture fibroblast: HCPF | 0.911 | 0.7898 | 0.731 | 0.702 | 0.646 | 0.623 | 0.602 | 0.57 | 0.545
coculture fibroblast: HHSteC | 0.896 | 0.809 | 0.76 | 0.728 | 0.686 | 0.653 | 0.628 | 0.611 | 0.571
coculture fibroblast: HMF | 0.947 | 0.852 | 0.831 | 0.819 | 0.774 | 0.759 | 0.719 | 0.704 | 0.694
coculture fibroblast: HPFa | 0.954 | 0.866 | 0.817 | 0.793 | 0.776 | 0.762 | 0.738 | 0.729 | 0.703
coculture fibroblast: HUF | 0.881 | 0.741 | 0.703 | 0.603 | 0.544 | 0.505 | 0.477 | 0.467 | 0.458
coculture fibroblast: Hs27A | 0.8826 | 0.799 | 0.724 | 0.677 | 0.63 | 0.624 | 0.598 | 0.602 | 0.571
coculture fibroblast: Hs343T | 0.9125 | 0.7617 | 0.738 | 0.73 | 0.668 | 0.655 | 0.634 | 0.618 | 0.628
coculture fibroblast: WS1 | 0.823 | 0.68 | 0.639 | 0.557 | 0.501 | 0.4849 | 0.462 | 0.463 | 0.465
